Laboratory results taken from publication PMC7462549.
No constants are given. Whether binding was seen depends on the method and setting. In cells and extracts the contact can be indirect. These calls come from enrichment with a bait or labelling near it, and not all partners need be listed. Where a sequence is shown, tags or fusion partners need not be part of it. Blank lines part the entries; values can stand above or below the binder they belong to.

Target: T1, TM6SF2-3×FLAG-tobacco etch virus (TEV) cleavage site-2×Protein A fusion protein (mouse) (UniProt Q8R1J1)
T1 sequence: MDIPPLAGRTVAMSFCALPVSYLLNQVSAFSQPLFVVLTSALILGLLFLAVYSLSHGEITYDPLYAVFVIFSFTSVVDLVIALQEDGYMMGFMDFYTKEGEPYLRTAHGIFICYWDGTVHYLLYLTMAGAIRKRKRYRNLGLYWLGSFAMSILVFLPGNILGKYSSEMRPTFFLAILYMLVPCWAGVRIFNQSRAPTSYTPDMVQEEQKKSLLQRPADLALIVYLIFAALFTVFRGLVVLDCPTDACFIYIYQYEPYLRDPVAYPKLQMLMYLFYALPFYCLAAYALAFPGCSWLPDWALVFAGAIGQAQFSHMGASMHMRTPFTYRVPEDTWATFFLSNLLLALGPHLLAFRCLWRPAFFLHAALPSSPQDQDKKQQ
Experiment: affinity purification with mass spectrometry; tandem affinity purification from CRL1601/TM6SF2-TAP stable cells lysed in PBS, 5 mM EDTA, 5 mM EGTA, 1% digitonin; IgG beads 4°C 2 h, TEV cleavage, anti-FLAG beads, elution with FLAG peptides; Orbitrap mass spectrometry

binding: binds
B1: endogenous ERLIN2 of CRL1601 cells (protein, UniProt B5DEH2 1-339)
chain: MAQLGAVVAVASSFFCASLFSAVHKIEEGHIGVYYRGGALLTSTSGPGFHLMLPFITSYKSVQTTLQTDEVKNVPCGTSGGVMIYFDRIEVVNFLVPHAVYDIVKNYTADYDKALIFNKIHHELNQFCSVHTLQEVYIELFDQIDENLKLALQQDLTSMAPGLVIQAVRVTKPNIPEAIRRNYELMESEKTKLLIAAQKQKVVEKEAETERKKALIEAEKVAQVAEITYGQKVMEKETEKKISEIEDAAFLAREKAKADAECYTALKIAEANKLKLTPEYLQLMKYKAIASNSKIYFGKDIPNMFMDSAGGLGKQSEGLSDKLGFGLEDEPLETATKDN

binding: binds
B2: GPI transamidase component PIG-S (protein, UniProt Q5XI31 1-555)
chain: MATAGAAATDLEVVRGKRAALFFAAVAILLGLPLWWKTTETYRAPLPYSEISGLNALQLRLMVPVTVVFTRDSVPLDDQEKLPFTVVHEREIPLKYKMKIKCRFQKAYRRALEHEEEALSLGSVHEAEALLAEPEKQAEGSLTVYVISEHSSLLPQDMMSYIGPERTAIVRGMIHREAFNIIGRRIIHVAQAMSLTEDVLAAALADHLPEDKWSSDKRRPLKSSLGYEITFSLLNPDPKSHDVHWDIEEGVQRYVQPFLNRLSAAGNFSVDSQILYYAMLGVNPRFDPASSSYSLAMHSLPHVINPVESRLGSSAASLYPVLNFLLYVPELAHSPLYIQDKDGAPVATNAFHSPRWGGIMVYNVDPKIYNASELPVRVEVDMAQVMEVFLAQLRLLFGIAQPQVPPKCLLSGPKSEGLMTWELDRLLWARSVENLATATTTLTSLAQLLGKISNIVIKDDVASEVYRAVAAVQKAAEALALGHLSSAFAASQEAVTSSERAFFDPSLLHLLYFPDDQKFAIYIPLFLPMAVPILLSLVKIFLETHKSWKKPEKID
